Library screening results

Results are given as percent effect. The record does not define 0% and 100%; most values in the screen are far below 50% and negative numbers occur (in some assays of this library far below -100). This is an unselected part of the compounds tested. Two or more numbers in one place are separate tests of the same structure; such repeats can differ widely.

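Viability assay of Plasmodium falciparum sporozoites; the read-out is not stated. The concentration is filed as 10 mM, unlikely as a test dose, so the dose is not known. Higher reads as lower viability (inferred: compounds with an IC50 in retests scored well above the rest). Strong results were mostly tested again. About 34,000 compounds were tested under these conditions; 0.84% (about 280) showed 50% or more at least once.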

| structure | Percent Effect |
|---|---|
| `CCc1cc(N2CCC(NCCc3ccc(C)o3)CC2)nc(C)n1` | 0.8953% |
| `Cc1ccc(CN2CCn3c(C(=O)N(C)C)cnc3C2)s1.O=C(O)C(F)(F)F` | -8.42% |
| `CCC1CN(CC(=O)N2CCCC2)CCN1CCOC` (stereo not given) | 12.48% |
| `CCn1nc(C)c2nc(C)nc(NCCCn3cccn3)c21` | -14.12% and -17.21% |
| `Fc1cnc(N2CCC3(CCCN(c4nncs4)C3)C2)nc1` (stereo not given) | -4.136% |
| `CN1CC2(CCCN(Cc3nnc(-c4cccc(F)c4)o3)C2)OC1=O` (stereo not given) | -1.134% and 5.375% |
| `Cc1noc(CN(CCc2ccco2)Cc2cccc(C#N)c2)n1` | -11.78% and -9.281% |
| `Cc1nn(C)cc1NC(=O)CC1CCN(C(=O)Cc2ccccc2)CC1` | 9.928% |
| `Cc1nccc(C(=O)N2CCCC2c2c(C)nn(C)c2C)n1` (stereo not given) | 4.913% |
| `CC(=O)Nc1nc(C(=O)N2CCCC2c2ccccc2C)cs1` (stereo not given) | -8.177% |
| `COCCN(C)C[C@@H]1CN(c2cc(C)nc3ccccc23)C[C@@H]1CO` | -1.074% |
| `CCNC(=O)CN1CCC(OCC2CCCO2)CC1` (stereo not given) | 0.9126% |
| `Cc1ccc(CN2CCc3nnc(CN4CCCC4=O)n3CC2)s1.O=C(O)C(F)(F)F` | 10.6% |
| `O=C(Nc1ccccc1)C1=NOC2(CCCN(C(=O)C3CCCC3)C2)C1` (stereo not given) | 6.404% |
| `CN(CCc1ccc2c(c1)CCO2)C1CCS(=O)(=O)CC1` | -0.7769% |
| `COCC(=O)N1CCC(C(=O)c2cc(C)cnc2N)CC1` | 17.84% |
| `CCc1nc(NC2CCCN(C(=O)c3cccs3)C2)c2cnn(C)c2n1` (stereo not given) | -1.923% |
| `O=C(CN1CCCC(Cn2cncn2)C1)NCCc1cccs1` (stereo not given) | -5.258% |
| `CC(C)N1CCC(CC(=O)NC(C(=O)O)c2cc(F)ccc2F)CC1` (stereo not given) | 6.284% |
| `Cc1nn(C)c(C)c1C1CCCN1CC(=O)Nc1nccs1` (stereo not given) | -16.29% |
| `CNC(=O)CCc1cc(C2CCCN2S(C)(=O)=O)nc(C)n1` (stereo not given) | 11.29% |
| `CC(C)Oc1ccc(C(=O)N2CCCCC2Cn2cccn2)cn1` (stereo not given) | 3.875% |
| `Cc1ccc(NC2CCN(C(=O)CCOCC(F)(F)F)CC2)nn1` | 8.849% |
| `CN1CCCC(c2nnc3n2CCN(S(=O)(=O)c2ccccc2Cl)C3)C1` (stereo not given) | 7.77% |
| `O=C(Cc1ccc2c(c1)CCC2)NCCNc1cnccn1` | 8.528% |
| `COc1cc(CNC(C)Cn2ccnc2)cc2c1OCCO2` (stereo not given) | -7.432% |
| `Cc1cccc(C(=O)N2CCn3cc(CNC(=O)CC4CC4)nc3C2)n1` | 9.259% |
| `Cc1nc(NCC2CC2)nc2c1COCC21CCN(C)C1` (stereo not given) | -11.65% |
| `CN(CC(=O)N(C)C(c1ccc(Cl)cc1)c1cccnc1)C1CC1` (stereo not given) | 0.2747% |
| `Cc1cc(C(=O)NCc2cccnc2N2CCc3ccccc3C2)[nH]n1` | 9.298% |
| `Cc1cc(N)nc(SC2CCN(c3ccccc3)C2=O)n1` (stereo not given) | -4.57% |
| `CCn1nc2c(cc1=O)CN(Cc1nc(-c3ccccn3)no1)CC2` | 26.41% |
| `CNC(=O)c1cc(C2CCCNC2)n[nH]1.Cl` (stereo not given) | 11.11% |
| `CC(=O)N(Cc1ncc(C)o1)C1CCN(Cc2csc(C)n2)C1` (stereo not given) | 8.537% |
| `Cc1nc(C)n(CC2CN(Cc3cccc4ccccc34)CCO2)n1` (stereo not given) | -5.117% |
| `CCN(Cc1nc2c(cnn2C)c(=O)[nH]1)c1cccc(F)c1` | 3.819% |
| `Cc1csc(NC(=O)CN(C)CC2CCCN2c2cccnn2)n1` (stereo not given) | -8.794% |
| `Cc1n[nH]c(C)c1NC(=O)CN1CCc2c(nc(C3CC3)n2C)C1` | 12.59% |
| `O=C(NCC(O)c1ccc(F)cc1F)c1ccccc1F` (stereo not given) | 9.813% |
| `COCC1CCN(c2cc(C3CN(C)CCO3)nc(C)n2)CC1` (stereo not given) | -14.88% |
| `CCn1ncc2c1CCCC2NCc1ccccc1N1CCOCC1` (stereo not given) | 37.08% and -22.36% and -20.73% |
| `CCOC(=O)N1CCN(C(=O)CCn2ccc3c(OC)cccc32)CC1` | -8.681% |
| `CN1CC(c2ccccc2)CC12CCN(C(=O)c1cccnc1)CC2` (stereo not given) | -17.09% |
| `CCc1c(C(=O)NCC(=O)OCC2CC2)cnn1-c1ccc(C)cc1` | 6.168% |
| `C[C@@H]1C[C@H](C(F)(F)F)n2nc(C3CCN(C(=O)C(C)(C)C)CC3)cc2N1` | -3.253% |
| `Fc1ccc(CN2CCCN(Cc3cscn3)CC2)cc1` | 12.02% |
| `CC(=O)N1CCN([C@@H]2CN(C(=O)c3ccccc3)C[C@H]2O)CC1` | 1.499% |
| `Cc1cc(C)n(C2CN(CC(O)c3ccc4c(c3)OCO4)C2)n1` (stereo not given) | -1.962% |
| `CCCn1[nH]c(CNc2cccc(Cl)c2)nc1=O` | 1.544% |
| `CCc1ccc(CN2CCC3(CC2)CC(N2CCN(C)CC2)CO3)cc1.O=C(O)C(F)(F)F` (stereo not given) | -9.143% |
| `COc1ccc(CN(C)[C@@H]2CN(C(=O)c3cccn3C)C[C@H]2O)cc1` | -1.374% |
| `O=C(CCC1CCCO1)N1CCc2nc(-c3cnccn3)nc(O)c2C1` (stereo not given) | 9.356% |
| `CCCC(C)(C)NC(=O)c1ccc(CC2CC(=O)NC2=O)cc1` (stereo not given) | -10.74% |
| `O=C(Nc1ccc(Cl)cn1)c1cncc(C2CCNCC2)n1` | 20.91% |
| `COC(=O)c1cccn1C1CCN(S(=O)(=O)c2ccccc2)CC1` | -6.347% |
| `Cc1ccc(-c2ccc(C3CNCCO3)nc2)cc1.Cl` (stereo not given) | 90.92% and 91.35% and 89.87% |
| `COc1ccccc1OCCN1CCCCC1Cn1cncn1` (stereo not given) | 0.8371% |
| `O=C(O)CC(O)(CC(=O)O)C(=O)O.c1cncc(-c2nccc(CN3CCCC3)n2)c1` | -14.34% |
| `CCN(CC)c1ncnc2c1CCN(CC1CCOCC1)CC2.O=C(O)C(F)(F)F` | -1.476% |
| `Cc1ccc(C(CNC(=O)NCc2ccccn2)N2CCOCC2)o1` (stereo not given) | 7.248% |
| `CC(NC(N)=O)C(=O)N(C)CCCc1cc(-c2ccccc2)no1` (stereo not given) | -1.754% |
| `COc1cccc(COCC(=O)N2CCCC(n3cncn3)C2)c1` (stereo not given) | -2.962% |
| `Cn1ccnc1CN1CCC2(CC1)CCN(c1ccccc1)C2=O.O=C(O)C(F)(F)F` | 7.799% |
| `Cc1cnc(CN(C)CC2CCCN2c2cccnn2)cn1` (stereo not given) | 0.6936% |
| `c1cnnc(N2CCCC(NCc3cn4ccccc4n3)C2)c1` (stereo not given) | 9.778% |
| `CC(=O)N1CCCC1(C)c1nc(C)no1` (stereo not given) | 0.7282% |
| `O=C(O)C(F)(F)F.O=C(O)C(F)(F)F.[H][C@@]12CCCO[C@]1([H])[C@H](N(C)Cc1ccco1)CN(Cc1ccc(C)s1)C2` | -4.866% |
| `CNC(=O)c1sc2ccccc2c1CC1CCCN1Cc1cnc(C)s1` (stereo not given) | 15.85% |
| `CCS(=O)(=O)NCCNCc1ccc(Cl)c2cccnc12` | -0.9858% |
| `Cc1ccc(O)c(CN2CCCCC2CCN2CCOCC2)c1` (stereo not given) | 4.118% |
| `Cn1nc(CNC(=O)c2nc3ccccc3s2)c2c1CCOC2` | -8.603% |
| `O=C(NCCn1ccnc1)N1CCCC1c1ccncc1` (stereo not given) | 7.848% |
| `O=C(O)C(F)(F)F.c1ccc(N2CCCC3(CCN(Cc4cccs4)C3)C2)nc1` (stereo not given) | 8.49% |
| `Cn1cnc2c1CCN(Cc1cccc(C(N)=O)c1)C2` | 0.9662% |
| `COc1c(CNCc2cccc(Cn3ccnc3C)c2)c(C)nn1C.Cl` | 7.32% |
| `CC(=O)c1cccc(NC(=O)CCn2nc(-c3cccs3)oc2=O)c1` | -3.073% |
| `COc1ccc(CNC(=O)Nc2cccnc2N2CCCC2)cc1OC` | 13.84% |
| `O=C(CCc1ccsc1)N1CCCC(n2cncn2)C1` (stereo not given) | -0.9457% |
| `CCCc1nnsc1C(=O)NCC1CCN(S(C)(=O)=O)CC1` | -6.021% |
| `CC(C)NC(=O)[C@@H]1C[C@H](N)CN1C(=O)c1cc2c([nH]c1=O)CCCC2` | -16.57% |
| `COc1ccccc1CN1CCc2c(nc(-c3ccccn3)[nH]c2=O)C1` | 17.4% |
| `COCCN1CCCC2(CCN(Cc3nnc(C4CC4)o3)C2)C1=O` (stereo not given) | -4.827% |
| `CC(C)(C)OC(=O)N[C@@H]1C[C@@H](O)CN(C(=O)c2cccc(F)c2)C[C@H]1O` | -4.004% |
| `CC(C)(C)c1n[nH]c(C2CN(C(=O)c3cc(Cl)c[nH]3)CCO2)n1` (stereo not given) | -13.64% |
| `CCOCC(O)CN1CCN(C(=O)c2cnc3n[nH]c(C)c3c2)CC1` (stereo not given) | -11.65% |
| `O=C(O)C(F)(F)F.[H][C@@]12OCCN(Cc3ccco3)[C@@]1([H])CC[C@H]2OCC1CCCC1` | -0.2568% |
| `[H][C@]12CCN(c3nc(CO)cs3)C[C@]1(COC)CC[C@@H](N1CCOCC1)C2` | 3.859% |
| `Cn1c(C2CC2)nc2c1CCN(CC(=O)Nc1ccncc1)C2` | 9.301% |
| `Cc1nc(C2CCCN2CC(=O)N2CCCc3ccccc32)no1` (stereo not given) | 4.782% |
| `CC(C)Nc1ncnc2c1CCN(C(=O)c1ccccc1F)CC2.O=C(O)C(F)(F)F` | -5.113% |
| `Cc1cnn(CCCNC(=O)NC(C)C(=O)Nc2ccccc2)c1` (stereo not given) | -12.35% |
| `Cc1cnccc1Cn1ccnc1C1CCOC1` (stereo not given) | -0.3286% |

Some entries from above, unchanged:

O=C(Nc1ccccc1)C1=NOC2(CCCN(C(=O)C3CCCC3)C2)C1 (stereo not given) read 6.404%.
[H][C@]12CCN(c3nc(CO)cs3)C[C@]1(COC)CC[C@@H](N1CCOCC1)C2 read 3.859%.
CN1CC2(CCCN(Cc3nnc(-c4cccc(F)c4)o3)C2)OC1=O (stereo not given) read -1.134% and 5.375%.
CNC(=O)c1sc2ccccc2c1CC1CCCN1Cc1cnc(C)s1 (stereo not given) read 15.85%.
O=C(CN1CCCC(Cn2cncn2)C1)NCCc1cccs1 (stereo not given) read -5.258%.
CC(=O)N(Cc1ncc(C)o1)C1CCN(Cc2csc(C)n2)C1 (stereo not given) read 8.537%.
CC(=O)c1cccc(NC(=O)CCn2nc(-c3cccs3)oc2=O)c1 read -3.073%.
O=C(CCC1CCCO1)N1CCc2nc(-c3cnccn3)nc(O)c2C1 (stereo not given) read 9.356%.
CNC(=O)c1cc(C2CCCNC2)n[nH]1.Cl (stereo not given) read 11.11%.

The values are deposited in ChEMBL (CHEMBL3988442, “University of Dundee, Small-Polar-MMV Screening Library” (2021)).